The campaign covered roughly 330,000 compounds. About 7,700 (2.3%) were called active. The shares of active, inactive and inconclusive entries below differ from those in the screen. Calls come from the whole dose curve; as a rule, active = well fitted inhibition curve with a large enough effect; inconclusive = small, poorly fitted or top-dose-only effect, or effect the other way; inactive = flat fitted curve, though single readings scatter. Where the call is inconclusive, the potency comes from a doubtful curve fit.
Experiment: qHTS screen for small molecules that inhibit ELG1-dependent DNA repair in human embryonic kidney (HEK293T) cells expressing luciferase-tagged ELG1; note: nearly all actives have a fitted effect of over 55% in size
Details: HEK293T ELG1-luciferase reporter, luminescence, 16 h, DNA damage induced by 5-fluorouridine; series mostly up to 46.1 µM
Summary of the method: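 DMSO vehicle served as the neutral condition. Each well held 2,000 cells given 5-fluorouridine plus compound; after 16 hr at 37 °C/5% CO2, ONE-Glo was added and luciferase measured 30 min later.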
Potency is the fitted concentration of half-maximal effect.

Structure (SMILES)	Potency
CCC(C)C(=O)Nc1nc2ccc(OC)cc2s1 (centres undefined)	inconclusive: 9.2 µM [activator, partial curve]
Cc1ccc(-c2cc(C(=O)Nc3cc(C)ccc3O)no2)cc1	inconclusive: 2.31 µM [activator, full curve]
CCOC(=O)C(CCCOc1cccc(OC)c1)C(=O)OCC	inactive
C=CCc1cccc(/C=C/c2cc(=O)c3ccccc3[nH]2)c1O	inconclusive: 9.2 µM [activator, partial curve]
Cc1cccc(OCC(=O)NCc2ccc(F)cc2)c1	inactive
COCc1cc(C)nc(SCC(=O)Nc2cc3c(cc2C#N)OCO3)c1C#N	inconclusive: 0.82 µM [inhibitor, partial curve, poor fit]
COc1ccc2c(c1)c(C(=O)N/N=C/c1ccc(OC)c(OC)c1)c(C)n2C	inconclusive: 16.4 µM [inhibitor, partial curve, poor fit]
Cc1ccc(C)c(NC(=O)c2nc(Cl)ccc2Cl)c1	inconclusive: 29.1 µM [activator, single point]
CCN1CCN(CCCNC(=O)CCC(=O)N2CCOc3ccccc32)CC1	inactive
COc1ccc(-c2nc(N)ncc2-c2csc(C)n2)c(O)c1	inconclusive: 29.1 µM [activator, single point]
C=CCOc1c(Br)cc(CNc2ccc(NC(=O)CCC)cc2)cc1OCC	inconclusive: 29.1 µM [inhibitor, single point]
CSCCC(NC(=O)c1ccccc1Cl)C(=O)OCC(=O)N1CCCC1=O (centres undefined)	inconclusive: 29.1 µM [activator, single point]
Cc1cccc(N2CCN(c3nnnn3-c3ccccc3)CC2C)c1 (centres undefined)	inconclusive: 23.1 µM [inhibitor, single point]
COc1ccc(CCn2c(SCC(=O)Nc3cc(C)on3)nc3ccsc3c2=O)cc1OC	active: 10.3 µM
Cc1cccc(NC(=O)C2Cc3ccccc3O/C2=N\O)c1 (centres undefined)	inconclusive: 16.4 µM [activator, single point]
Cc1ccc(-c2nn(-c3ccccc3)cc2/C=N/n2c(-c3ccncc3)n[nH]c2=S)cc1	inconclusive: 20.6 µM [inhibitor, partial curve, poor fit]
CC1=C(C(=O)Nc2cccc(C(=O)NC(C)C)c2)SCCO1	inconclusive: 20.6 µM [inhibitor, single point]
CCOC(=O)c1c(-c2ccccc2)oc2ccc(OCC(O)CNCCN(C)C)cc12 (centres undefined)	inconclusive: 20.6 µM [inhibitor, single point]
CSc1nc2ccc(NC(=O)c3ccccn3)cc2s1	inconclusive: 0.73 µM [activator, partial curve]
Cc1cc(N2C(=O)C(O)=C(C(=O)c3cccs3)C2c2cccc(Br)c2)no1 (centres undefined)	inactive
O=c1[nH]c(CN2CCN(C/C=C/c3ccccc3)CC2)nc2ccccc12	inactive
CCOC(=O)N1CCN(C(=O)C(C)N(c2ccc(Oc3ccccc3)cc2)S(C)(=O)=O)CC1 (centres undefined)	active: 6.51 µM

Shown as labelled records: part of the list above.
COc1ccc(CCn2c(SCC(=O)Nc3cc(C)on3)nc3ccsc3c2=O)cc1OC
  Potency: active: 10.3 µM
Cc1cccc(NC(=O)C2Cc3ccccc3O/C2=N\O)c1 (centres undefined)
  Potency: inconclusive: 16.4 µM [activator, single point]

The list goes on.

Structure (SMILES)	Potency
Cc1ncoc1C(=O)N1CCCC(C(=O)c2ccc3c4c(cccc24)CC3)C1 (centres undefined)	active: 16.4 µM
CCn1nc(NC(=O)c2ccncc2)c2cc3cc(C)ccc3nc21	inconclusive: 29.1 µM [inhibitor, single point]
O=C(CSc1ccccc1)NNC(=O)c1ccccc1O	inconclusive: 25.9 µM [activator, single point]
COc1ccc(N2CCN(C(=O)Cc3ncc(C(F)(F)F)cc3Cl)CC2)cc1	inconclusive: 0.0461 µM [inhibitor, full curve, poor fit]
OCCCNc1cc(-c2ccnc(Nc3cccc(Cl)c3)n2)ccn1	active: 0.58 µM
CC(C)c1ccc(/C=C/C(=O)NCc2ccc(S(N)(=O)=O)cc2)cc1	inconclusive: 29.1 µM [inhibitor, partial curve, poor fit]
CC1Oc2ccccc2N(CC(=O)c2ccccc2)C1=O (centres undefined)	inactive
Brc1cnc(N2CCOCC2)nc1N1CCCCC1	inconclusive: 14.1 µM [activator, single point]
Cc1ccc2[nH]c3c(N4CCN(Cc5ccc6c(c5)OCO6)CC4)ncnc3c2c1	active: 23.1 µM
Cc1ccc(CN2CCC(Oc3cccc(C(=O)N(C)CCN(C)C)c3)CC2)cc1C	inactive
Cn1c(-c2cccc(F)c2)nc2c1c(=O)[nH]c(=O)n2Cc1ccccc1	inconclusive: 29.1 µM [inhibitor, single point]
COc1ccccc1CCNS(=O)(=O)c1cc2c3c(c1)CCN3C(=O)CC2	inconclusive: 6.51 µM [activator, partial curve, poor fit]
Fc1ccc2nc(N3CCOCC3)sc2c1	inconclusive: 16.4 µM [activator, partial curve]
COc1ccccc1C1C(C(=O)c2ccco2)=C(O)C(=O)N1c1cc(C)on1 (centres undefined)	inconclusive: 16.4 µM [inhibitor, single point]
CCCNC(=O)c1cc(Cl)c(NC(=O)C2=CSCCO2)cc1OC	inconclusive: 3.26 µM [activator, partial curve]
C[C@]12C(=O)N(c3ccc(C(F)(F)F)cc3)C(=O)N1[C@@H]1c3ccccc3OC[C@@H]1[C@H]2c1ccccc1	inactive
O=C(OCCc1cc2ccccc2c(=O)o1)c1ccccc1C(F)(F)F	inconclusive: 29.1 µM [inhibitor, single point]
c1ccc(Sc2ncnc3c2oc2ccccc23)cc1	inconclusive: 13 µM [activator, partial curve]
COc1ccc(C(=O)N2CCN(C(=O)c3ccc(-c4ccccc4)cc3)CC2)cc1OC	inconclusive: 20.6 µM [inhibitor, partial curve]
CC(C1CC2CCC1C2)N1CC(O)=C(c2nc3ccccc3[nH]2)C1=N (centres undefined)	inconclusive: 13 µM [inhibitor, partial curve]
CCC(Sc1ccccn1)C(=O)Nc1nnc(C)s1 (centres undefined)	inactive
Nc1c(C(=O)N/N=C/c2ccc(F)cc2)oc2nc(-c3ccccc3)cc(-c3ccco3)c12	inactive

— PubChem BioAssay AID504467 (National Center for Advancing Translational Sciences (NCATS), 2011)
